Measurements published in patent US9675072B2, “Tetrazolinone compound and application of same” (SUMITOMO CHEMICAL COMPANY, LIMITED, priority 2013, dated 2017).
Some of these results come from one statement about several compounds together. At least one compound was matched to its structure with a doubt left.

What was measured:
Type in all cases: in vivo
[1] = system: soybean rust fungus (Phakopsora pachyrhizi); test: Soybean rust control test, foliage spray on soybean; conditions: Test Example 13; 200 ppm foliage spray; soybean (KUROSENGOKU); inoculated 2 days after spraying
[2] = system: cucumber corynespora leaf spot fungus (Corynespora cassicola); test: Cucumber corynespora leaf spot control test, foliage spray on cucumber; conditions: Test Example 15; 200 ppm foliage spray; cucumber (SAGAMI HANJIRO); inoculated one day after spraying; 7 days
[3] = system: cucumber anthracnose fungus (Colletotrichum lagenarium); test: Cucumber anthracnose control test, foliage spray on cucumber; conditions: Test Example 16; 200 ppm foliage spray; cucumber (SAGAMI HANJIRO); inoculated one day after spraying
[4] = system: kidney bean stem rot fungus (Sclerotinia sclerotiorum); test: Kidney bean stem rot control test, foliage spray on kidney bean; conditions: kidney bean (NAGAUZURA INNGEN), four days after inoculation
[5] = system: barley scald fungus (Rhynchosporium secalis); test: Barley scald control test, foliage spray on barley; conditions: Test Example 14; 200 ppm foliage spray; barley (MIKAMO GOLDEN); inoculated 2 days after spraying
[6] = system: wheat leaf blotch fungus (Septoria tritici); test: Wheat leaf blotch control test, foliage spray on wheat; conditions: Test Example 5; 500 ppm foliage spray; wheat (APOGEE); inoculated 4 days after spraying
[7] = Test Example 10, 200 ppm foliage spray
[8] = Test Example 4, 500 ppm foliage spray

Measured: area of lesion spots on treated plant relative to untreated plant

COc1c(C)c(-c2ccc(OCc3ccccc3-n3nnn(C)c3=O)c(Cl)c2)nn1C [compound 1]
≤ 30%: [1]

COc1c(C)c(-c2ccc(OCc3ccccc3-n3nnn(C)c3=O)c(C)c2)nn1C [compound 2]
≤ 30%: [1]

CCCOc1c(C)c(-c2ccc(OCc3ccccc3-n3nnn(C)c3=O)c(C)c2)nn1C [compound 4]
≤ 30%: [1]

CSc1c(C)c(-c2ccc(OCc3ccccc3-n3nnn(C)c3=O)c(C)c2)nn1C [compound 5]
≤ 30%: [1]

COc1c(Cl)c(-c2ccc(OCc3ccccc3-n3nnn(C)c3=O)c(C)c2)nn1C [compound 8]
≤ 30%: [1] | [2] | [3] | [4]; [7]

COc1c(C(F)F)c(-c2ccc(OCc3ccccc3-n3nnn(C)c3=O)c(C)c2)nn1C [compound 9]
≤ 30%: [1] | [2] | [3] | [4]; [7]

COc1cc(-c2ccc(OCc3ccccc3-n3nnn(C)c3=O)c(C)c2)nn1C [compound 11]
≤ 30%: [5] | [1] | [2] | [6] | [3] | [4]; [8]

COc1c(Br)c(-c2ccc(OCc3ccccc3-n3nnn(C)c3=O)c(C)c2)nn1C [compound 12]
≤ 30%: [5] | [1] | [2] | [6] | [3]

COc1cc(-c2cc(C)c(OCc3ccccc3-n3nnn(C)c3=O)cc2C)nn1C [compound 14]
≤ 30%: [5] | [2] | [6] | [3] | [4]; [8]
